According to the supplement of paper PMC8728848:
The list shows a part of the results.

How the values were obtained:
Experiment in all cases: glycan array binding signal (z-score within array); higher = stronger binding
Conditions in all cases: glycan notation: IUPAC condensed, linker removed
[1] = target: Gal(b1-3)GalNAc(b1-3)Gal
How it was run: (§1)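 The Consortium for Functional Glycomics database supplied 3228 glycan arrays, of which those lacking an available protein sequence were dropped. The binding signal, a within-array Z-score, was averaged across arrays of the same protein sequence and across linkers. Negative scores can be read as non-binding.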

[2] = target: Gal(b1-3)GalNAc(b1-3)Gal(a1-4)Gal(b1-4)Glc
How it was run: as §1

[3] = target: Gal(b1-3)GalNAc(b1-4)Gal(b1-4)Glc
How it was run: as §1

[4] = target: Gal(b1-3)GalNAc(b1-4)[Neu5Ac(a2-3)]Gal(b1-4)Glc
How it was run: as §1

[5] = target: Gal(b1-3)GlcNAc
How it was run: as §1

[6] = target: Gal(b1-3)GlcNAc(a1-3)Gal(b1-4)GlcNAc
How it was run: as §1

[7] = target: Gal(b1-3)GlcNAc(a1-6)Gal(b1-4)GlcNAc
How it was run: as §1

[8] = target: Gal(b1-3)GlcNAc(b1-2)Man
How it was run: as §1

[9] = target: Gal(b1-3)GlcNAc(b1-2)Man(a1-3)[Gal(b1-3)GlcNAc(b1-2)Man(a1-6)]Man(b1-4)GlcNAc(b1-4)GlcNAc
How it was run: as §1

[10] = target: Gal(b1-3)GlcNAc(b1-2)Man(a1-3)[Gal(b1-3)GlcNAc(b1-2)Man(a1-6)]Man(b1-4)GlcNAc(b1-4)[Fuc(a1-6)]GlcNAc
How it was run: as §1

[11] = target: Gal(b1-3)GlcNAc(b1-2)Man(a1-3)[GlcNAc(b1-4)][Gal(b1-3)GlcNAc(b1-2)Man(a1-6)]Man(b1-4)GlcNAc(b1-4)GlcNAc
How it was run: as §1

[12] = target: Gal(b1-3)GlcNAc(b1-2)[Gal(b1-3)GlcNAc(b1-6)]Man(a1-6)[Gal(b1-3)GlcNAc(b1-2)Man(a1-3)]Man(b1-4)GlcNAc(b1-4)GlcNAc
How it was run: as §1

[13] = target: Gal(b1-3)GlcNAc(b1-3)Gal(b1-3)GlcNAc
How it was run: as §1

[14] = target: Gal(b1-3)GlcNAc(b1-3)Gal(b1-4)Glc
How it was run: as §1

[15] = target: Gal(b1-3)GlcNAc(b1-3)Gal(b1-4)GlcNAc
How it was run: as §1

[16] = target: Gal(b1-3)GlcNAc(b1-3)Gal(b1-4)GlcNAc(b1-2)Man(a1-3)[Gal(b1-3)GlcNAc(b1-3)Gal(b1-4)GlcNAc(b1-2)Man(a1-6)]Man(b1-4)GlcNAc(b1-4)GlcNAc
How it was run: as §1

[17] = target: Gal(b1-3)GlcNAc(b1-3)Gal(b1-4)GlcNAc(b1-2)[Gal(b1-3)GlcNAc(b1-3)Gal(b1-4)GlcNAc(b1-6)]Man(a1-6)[Gal(b1-3)GlcNAc(b1-3)Gal(b1-4)GlcNAc(b1-2)Man(a1-3)]Man(b1-4)GlcNAc(b1-4)[Fuc(a1-6)]GlcNAc
How it was run: as §1

[18] = target: Gal(b1-3)GlcNAc(b1-3)Gal(b1-4)GlcNAc(b1-3)Gal(b1-4)GlcNAc(b1-2)[Gal(b1-3)GlcNAc(b1-3)Gal(b1-4)GlcNAc(b1-3)Gal(b1-4)GlcNAc(b1-6)]Man(a1-6)[Gal(b1-3)GlcNAc(b1-3)Gal(b1-4)GlcNAc(b1-3)Gal(b1-4)GlcNAc(b1-2)Man(a1-3)]Man(b1-4)GlcNAc(b1-4)[Fuc(a1-6)]GlcNAc
How it was run: as §1

[19] = target: Gal(b1-3)GlcNAc(b1-3)Gal(b1-4)GlcNAc(b1-6)[Gal(b1-3)GlcNAc(b1-3)]Gal(b1-4)Glc
How it was run: as §1

[20] = target: Gal(b1-3)GlcNAc(b1-3)Gal(b1-4)[Fuc(a1-3)]GlcNAc
How it was run: as §1

[21] = target: Gal(b1-3)GlcNAc(b1-3)Gal(b1-4)[Fuc(a1-3)]GlcNAc(b1-6)[Gal(b1-3)GlcNAc(b1-3)]Gal(b1-4)Glc
How it was run: as §1

[22] = target: Gal(b1-3)GlcNAc(b1-3)GalNAc
How it was run: as §1

[23] = target: Gal(b1-3)GlcNAc(b1-6)Gal(b1-4)GlcNAc
How it was run: as §1

[24] = target: Gal(b1-3)GlcNAc(b1-6)GalNAc
How it was run: as §1

[25] = target: Gal(b1-3)GlcNAc(b1-6)[Gal(b1-3)]GalNAc
How it was run: as §1

[26] = target: Gal(b1-3)GlcNAc6S
How it was run: as §1

With KISKRILTGKK [NK11 (Sus scrofa)] the “glycan array binding signal (z-score)” value [1] was -0.081, the “glycan array binding signal (z-score)” value [2] was 0.088 and the “glycan array binding signal (z-score)” value [3] was -0.598. The “glycan array binding signal (z-score)” value [4] was 0.499, the “glycan array binding signal (z-score)” value [5] was -0.818 and the “glycan array binding signal (z-score)” value [6] was 1.09. The “glycan array binding signal (z-score)” value [7] was -0.484, the “glycan array binding signal (z-score)” value [8] was 1.06 and the “glycan array binding signal (z-score)” value [9] was 0.324. The “glycan array binding signal (z-score)” value [10] was -0.247, the “glycan array binding signal (z-score)” value [11] was 0.142 and the “glycan array binding signal (z-score)” value [12] was 0.083. For the same binder, the “glycan array binding signal (z-score)” value [13] was -0.639, the “glycan array binding signal (z-score)” value [14] was -0.986 and the “glycan array binding signal (z-score)” value [15] was -1.08. The “glycan array binding signal (z-score)” value [16] was -0.818, the “glycan array binding signal (z-score)” value [17] was 1 and the “glycan array binding signal (z-score)” value [18] was -0.607. For the same binder, the “glycan array binding signal (z-score)” value [19] was 0.691, the “glycan array binding signal (z-score)” value [20] was -0.558 and the “glycan array binding signal (z-score)” value [21] was -0.485. For the same binder, the “glycan array binding signal (z-score)” value [22] was -0.602, the “glycan array binding signal (z-score)” value [23] was 0.211 and the “glycan array binding signal (z-score)” value [24] was 0.832. For the same binder, the “glycan array binding signal (z-score)” value [25] was -1.61 and the “glycan array binding signal (z-score)” value [26] was 0.877.
